# PubChem BioAssay AID493246 | Drosophila RNAi Screening Center | 2011
# Screen: 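Genes fly cells need to grow and stay alive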 (primary screen)
# Cells: Drosophila Kc and S2R+ cells
# Reagent: long dsRNA against Drosophila genes
# Measurement: 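Cell number per well after knock-down, printed as raw plate values; calls were based on per-plate z-scores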
# Reading the numbers: Kc cell number and S2R+ cell number: higher = more cells remaining
# Call rule: 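Active when the per-plate z-score of cell number is 3 or more in the direction of fewer cells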
# The deposit covers about 21,000 reagents; shown is an unselected part of those that have a named target and a result. Of all reagents, 429 (2%) were called active. 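Values are raw and not normalised between plates; calls rest on per-plate z-scores that were not deposited.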 The numbers tell different reagents against one gene apart. A plus sign joins genes that one reagent is predicted to hit. The record does not give: the amount of reagent, the time to read-out.
Gene,reagent no.,"Kc cell number, rep 1","Kc cell number, rep 2","S2R+ cell number, rep 1","S2R+ cell number, rep 2",activity call
sced (scrambled),1,1.37e6,1.41e6,1.11e6,1.15e6,inactive
CG12128,1,1.33e6,1.47e6,1.09e6,1.16e6,inactive
CG31809,1,1.44e6,1.49e6,9.04e5,1.09e6,inactive
CG10864,1,1.18e6,1.14e6,1.08e6,1.16e6,inactive
Pcd (pterin-4a-carbinolamine dehydratase),1,1.45e6,1.47e6,9.89e5,1.05e6,inactive
CG15458,1,1.37e6,1.41e6,1.05e6,1.19e6,inactive
CG14302,1,1.19e6,1.14e6,1.12e6,1.19e6,inactive
Oatp74D (Organic anion transporting polypeptide 74D),1,1.49e6,1.61e6,1.11e6,1.26e6,inactive
Oatp74D (Organic anion transporting polypeptide 74D),2,1.47e6,1.49e6,1.16e6,1.27e6,inactive
CG32243,1,1.77e6,1.63e6,1.07e6,1.24e6,inactive
Nup358 (Nucleoporin 358kD),1,1.17e6,1.33e6,1.13e6,1.34e6,inactive
Gprk2 (G protein-coupled receptor kinase 2),1,4.40e5,,6.96e5,,inactive
CG6073,1,1.64e6,1.71e6,1.13e6,1.28e6,inactive
Sas-6 (Spindle assembly abnormal 6),1,1.51e6,1.59e6,1.06e6,1.22e6,inactive
atk (artichoke),1,1.36e6,1.32e6,9.93e5,1.17e6,inactive
atk (artichoke),2,1.44e6,1.75e6,1.24e6,1.35e6,inactive
CG32407,1,1.67e6,1.59e6,1.12e6,1.29e6,inactive
CG8925,1,1.36e6,1.59e6,1.06e6,1.16e6,inactive
CG8925,2,1.28e6,1.42e6,1.09e6,1.21e6,inactive
CG8925,3,1.20e6,1.32e6,1.10e6,1.24e6,inactive
CG11583,1,1.40e6,1.48e6,1.02e6,1.03e6,inactive
Tsp29Fa (Tetraspanin 29Fa),1,1.61e6,1.68e6,1.12e6,1.22e6,inactive
Ald2 (Aldolase 2),1,1.67e6,1.88e6,1.01e6,1.11e6,inactive
clos (closca),1,1.61e6,1.66e6,1.30e6,1.44e6,inactive
clos (closca),2,1.66e6,1.70e6,1.31e6,1.49e6,inactive
clos (closca),3,1.60e6,1.65e6,1.32e6,1.49e6,inactive
CG10859,1,1.27e6,1.37e6,1.30e6,1.24e6,inactive
CG14451,1,1.56e6,1.61e6,1.28e6,1.42e6,inactive
ry (rosy),1,1.58e6,1.64e6,1.38e6,1.44e6,inactive
side-II (sidestep II),1,1.47e6,1.56e6,9.85e5,1.17e6,inactive
side-II (sidestep II),2,1.49e6,1.58e6,9.81e5,1.19e6,inactive
side-II (sidestep II),3,1.54e6,1.67e6,1.19e6,1.33e6,inactive
side-II (sidestep II),4,1.41e6,1.57e6,1.03e6,1.17e6,inactive
side-II (sidestep II),5,1.62e6,1.72e6,1.31e6,1.48e6,inactive
CG30274,1,1.52e6,1.58e6,1.31e6,1.35e6,inactive
Polr2B (RNA polymerase II subunit B),1,1.55e6,1.80e6,9.54e5,1.01e6,inactive
Drs (Drosomycin),1,1.41e6,1.30e6,9.57e5,1.22e6,inactive
RpL27A (Ribosomal protein L27A),1,9.59e5,9.22e5,6.30e5,7.36e5,active
CG3062,1,1.66e6,1.62e6,1.09e6,1.22e6,inactive
Irp-1A (Iron regulatory protein 1A),1,1.33e6,1.33e6,1.14e6,1.26e6,inactive
bard,1,1.35e6,1.34e6,1.06e6,1.14e6,inactive
Tim10 + CG42497,1,1.22e6,1.43e6,9.26e5,6.54e5,inactive
et (eye transformer),1,1.65e6,1.72e6,1.18e6,1.32e6,inactive
xmas,1,1.62e6,1.67e6,9.84e5,1.19e6,inactive
CG6696,1,1.48e6,1.54e6,9.76e5,1.15e6,inactive
CG44838,1,6.73e5,9.07e5,5.28e5,6.22e5,active
CG44838,2,1.36e6,1.41e6,1.28e6,1.23e6,inactive
CG13461,1,1.44e6,1.43e6,1.25e6,1.33e6,inactive
PNPase (Polynucleotide phosphorylase),1,5.13e5,,8.18e5,,inactive
Nrg (Neuroglian),1,1.20e6,1.40e6,1.09e6,1.14e6,inactive
Nrg (Neuroglian),2,5.60e5,,8.59e5,,inactive
fs(2)ltoPP43 (female sterile (2) ltoPP43),1,1.64e6,1.70e6,1.13e6,2.58e5,inactive
Abd-B (Abdominal B),1,1.43e6,1.43e6,1.05e6,1.19e6,inactive
Abd-B (Abdominal B),2,1.29e6,1.27e6,1.07e6,1.20e6,inactive
Xrp1,1,2.89e5,3.54e5,3.49e5,4.46e5,active
Xrp1,2,1.14e6,1.26e6,8.45e5,8.77e5,inactive
CG31327,1,1.41e6,1.65e6,1.09e6,1.29e6,inactive
CG5853,1,1.38e6,1.48e6,1.01e6,1.13e6,inactive
CG5853,2,1.39e6,1.41e6,1.15e6,1.23e6,inactive
